The results in this text go back to doi:10.1101/2020.03.28.013060.

In the assay the target is T1, EGFP-tagged full length wild type NHR-25 (C. elegans) (UniProt Q19345).
T1 sequence: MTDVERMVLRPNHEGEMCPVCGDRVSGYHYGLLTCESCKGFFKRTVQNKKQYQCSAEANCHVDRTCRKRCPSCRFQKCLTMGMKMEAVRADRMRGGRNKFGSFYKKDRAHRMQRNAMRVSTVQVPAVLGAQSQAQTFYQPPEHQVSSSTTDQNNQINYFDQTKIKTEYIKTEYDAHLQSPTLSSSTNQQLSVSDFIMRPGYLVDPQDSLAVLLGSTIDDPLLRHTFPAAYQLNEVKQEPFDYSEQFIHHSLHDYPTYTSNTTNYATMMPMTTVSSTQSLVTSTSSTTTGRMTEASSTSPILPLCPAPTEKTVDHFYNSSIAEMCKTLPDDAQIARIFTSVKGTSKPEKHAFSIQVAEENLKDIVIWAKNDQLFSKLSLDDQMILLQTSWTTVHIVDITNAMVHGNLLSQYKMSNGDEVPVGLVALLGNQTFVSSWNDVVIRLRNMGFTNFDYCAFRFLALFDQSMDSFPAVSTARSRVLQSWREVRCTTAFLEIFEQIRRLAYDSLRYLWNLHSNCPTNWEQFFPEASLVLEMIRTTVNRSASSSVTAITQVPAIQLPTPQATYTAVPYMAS
The assay can be described thus: co-IP.

These are yes or no findings as the source states them, for the method shown. In cells and extracts the contact can be indirect. A result given as binding can be weak or reduced; the word gives no strength. Sequences can lack the tags named with a protein.

For “FLAG-tagged wild-type LIR-2 (C. elegans)”, the binding entry is recorded as “binds”.
